Measured values as given in publication PMC8027081, “Structural Basis of VSIG3: The Ligand for VISTA” (Frontiers in Immunology, 2021).

The chains behind the UniProt entries cited, without tags or fusion partners. Where a name states a change or a piece, a line headed by the entry shows the natural chain unless it says otherwise.
UniProt Q9H7M9: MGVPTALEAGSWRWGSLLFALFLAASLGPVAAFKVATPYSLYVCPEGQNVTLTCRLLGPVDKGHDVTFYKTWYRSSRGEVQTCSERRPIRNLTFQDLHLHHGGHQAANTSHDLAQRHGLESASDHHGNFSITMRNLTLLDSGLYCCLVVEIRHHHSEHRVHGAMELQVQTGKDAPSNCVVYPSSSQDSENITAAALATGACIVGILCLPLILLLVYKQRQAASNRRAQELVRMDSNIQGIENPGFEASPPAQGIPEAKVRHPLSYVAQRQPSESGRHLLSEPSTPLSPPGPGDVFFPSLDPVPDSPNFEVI

Experiments:
[1] = biological target: recombinant VISTA (human) (UniProt Q9H7M9); experiment: ELISA; binding of VSIG3/VISTA with different concentrations of a VSIG3 antibody; both purified
[2] = biological target: recombinant VISTA (human) (UniProt Q9H7M9); experiment: ELISA; functional ELISA binding assay of CHO-expressed VSIG3-ECD and recombinant VISTA; both purified

binding [1]: binds | binding [2]: binds
B1: human VSIG3 extracellular domain (residues 23-241) expressed in E. coli, refolded (domain or fragment, UniProt Q5DX21 23-241, looked up)
chain: LEVSESPGSIQVARGQPAVLPCTFTTSAALINLNVIWMVTPLSNANQPEQVILYQGGQMFDGAPRFHGRVGFTGTMPATNVSIFINNTQLSDTGTYQCLVNNLPDIGGRNIGVTGLTVLVPPSAPHCQIQGSQDIGSDVILLCSSEEGIPRPTYLWEKLDNTLKLPPTATQDQVQGTVTIRNISALSSGLYQCVASNAIGTSTCLLDLQVISPQPRNIG
notes: VSIG3 (IgSF11), human, UniProt Q5DX21, residues 23-241 (extracellular domain without the 22-residue signal peptide); No PDB id is printed; also called VSIG3-ECD; IgSF11; not shown: His tag (from the vector pET28a)

Results are given in words; binding and its absence hold for the method and conditions named. Binding calls can cover weak binding; strength is not graded here.
